Protein sequences can lack the tags named with them. For some assays here: For at least one entry, the source does not settle the construct or the ends of the probe.

This note sets out measurements from paper PMC4518582.

In series [1] the test system is T1, FurA (Nostoc sp. PCC 7120).
T1 sequence (looked up): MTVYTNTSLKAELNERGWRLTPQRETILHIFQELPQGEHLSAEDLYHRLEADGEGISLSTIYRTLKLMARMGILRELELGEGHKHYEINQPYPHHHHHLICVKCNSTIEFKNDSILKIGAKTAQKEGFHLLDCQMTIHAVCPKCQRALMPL
The series is described as follows: EMSA. The settings on record: 1 mM Mn2+, 1 mM DTT; FurA: 10 mM Tris pH 7.5, 40 mM KCl, 0.1 mg/ml BSA, 5% glycerol, 1 mM MnCl2, 1 mM DTT, 50 ug/ml salmon sperm DNA; NtcA: 12 mM HEPES-NaOH pH 8, 4 mM Tris-HCl pH 8; recombinant protein; residues 1-151; label: Cy5 on reverse primer (3' end as stated); probe letters rebuilt from the primers and the genome. A general note: In EMSA bound probe runs differently from free probe, usually more slowly.

Another series deals with T2, NtcA (UniProt P0A4U6).
T2 sequence (looked up, limits assumed): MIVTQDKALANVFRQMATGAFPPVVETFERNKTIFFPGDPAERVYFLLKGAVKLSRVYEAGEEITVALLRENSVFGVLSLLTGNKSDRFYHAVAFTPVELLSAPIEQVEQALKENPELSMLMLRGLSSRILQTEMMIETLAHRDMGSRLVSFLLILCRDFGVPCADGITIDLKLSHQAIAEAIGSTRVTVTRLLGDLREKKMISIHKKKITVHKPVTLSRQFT
Nature of the series: EMSA. The settings on record: 1 mM 2-oxoglutarate; FurA: 10 mM Tris pH 7.5, 40 mM KCl, 0.1 mg/ml BSA, 5% glycerol, 1 mM MnCl2, 1 mM DTT, 50 ug/ml salmon sperm DNA; NtcA: 12 mM HEPES-NaOH pH 8, 4 mM Tris-HCl pH 8; recombinant protein; label: Cy5 on reverse primer (3' end as stated); probe letters rebuilt from the primers and the genome.

Take “GTTTTTGTGGTTTTGAGCATTGAGGGTTTATGCAGAGGCTCATCGCTTCGGCAAGTAACAGTTTTATCAGAATAGTTTAACCTGATCGGGATTCTTCGTAATAAATTAGGCGATCGCAATATCTCATCTCAAGTGGGACAATGAATTATAAAAATGTCAATTACCTTTCTTGATCATGATTTTTTCCATTTCATGGTTCAAAAAAGCTCCCACTGTGGCAATCTGAGAAACATAGGCTTTTAAATCTGATATTTTAACTACAGCAAATCCACCTAATTAAGGTTATGCAAACTCTGCCGACACCCACAACATCCAGTAATACAGCCAACCAAGCCACCTTTGATACTACAATCAAGCGTCGTAAAACCCGTCCTGTGAAAGTGGGTAATGTCACCATCGGCGGTGGCTACCCTGTGGTGGTGCAGTCGATGATTAACGAAGACACTCTTGATAT (double strand) [Ppkn22 (pkn22 promoter)]”: the binding result (in series [1]; with NtcA) was “binds” throughout.
